No constants are given. Whether binding was seen depends on the method and setting. In cells and extracts the contact can be indirect. A yes stands for co-enrichment or nearness to the bait. Other partners may have been found.

Chains of the proteins cited; added tags and fusions are not shown.
UniProt P08670: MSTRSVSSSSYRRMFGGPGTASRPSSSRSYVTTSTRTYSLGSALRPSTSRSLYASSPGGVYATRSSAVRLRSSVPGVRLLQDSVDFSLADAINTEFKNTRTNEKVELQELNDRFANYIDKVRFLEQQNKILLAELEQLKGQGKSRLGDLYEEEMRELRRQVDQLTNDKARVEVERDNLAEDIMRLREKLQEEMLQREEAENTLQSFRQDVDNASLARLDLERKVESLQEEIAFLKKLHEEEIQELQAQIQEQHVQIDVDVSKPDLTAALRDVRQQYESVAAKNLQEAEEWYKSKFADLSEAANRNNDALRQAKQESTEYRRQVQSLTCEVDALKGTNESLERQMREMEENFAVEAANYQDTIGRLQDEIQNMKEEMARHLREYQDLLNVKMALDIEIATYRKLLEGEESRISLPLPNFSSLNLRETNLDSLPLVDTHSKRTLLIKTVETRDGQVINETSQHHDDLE

In experiment [1] the target is Vimentin (human (endogenous in hGF)) (UniProt P08670). Put plainly: affinity purification with mass spectrometry; vimentin immunoprecipitated from hGF lysates with vimentin antibody on Protein A Dynabeads; pre-immune serum beads subtracted; four replicated experiments.
Experiment [2] deals with Vimentin (human (endogenous in hGF)), P08670. The experiment is described as above. Particulars: remark: other sources report otherwise.

B1: Protein S100-A16 (protein, UniProt Q96FQ6 1-103)
chain: MSDCYTELEKAVIVLVENFYKYVSKYSLVKNKISKSSFREMLQKELNHMLSDTGNRKAADKLIQNLDANHDGRISFDEYWTLIGGITGPIAKLIHEQEQQSSS
Take B1: the binding result in experiment [1] is on record as “binds”.

B2: ATP-binding cassette subfamily F member 2 (protein, UniProt Q9UG63 1-623)
chain: MPSDLAKKKAAKKKEAAKARQRPRKGHEENGDVVTEPQVAEKNEANGRETTEVDLLTKELEDFEMKKAAARAVTGVLASHPNSTDVHIINLSLTFHGQELLSDTKLELNSGRRYGLIGLNGIGKSMLLSAIGKREVPIPEHIDIYHLTREMPPSDKTPLHCVMEVDTERAMLEKEAERLAHEDAECEKLMELYERLEELDADKAEMRASRILHGLGFTPAMQRKKLKDFSGGWRMRVALARALFIRPFMLLLDEPTNHLDLDACVWLEEELKTFKRILVLVSHSQDFLNGVCTNIIHMHNKKLKYYTGNYDQYVKTRLELEENQMKRFHWEQDQIAHMKNYIARFGHGSAKLARQAQSKEKTLQKMMASGLTERVVSDKTLSFYFPPCGKIPPPVIMVQNVSFKYTKDGPCIYNNLEFGIDLDTRVALVGPNGAGKSTLLKLLTGELLPTDGMIRKHSHVKIGRYHQHLQEQLDLDLSPLEYMMKCYPEIKEKEEMRKIIGRYGLTGKQQVSPIRNLSDGQKCRVCLAWLAWQNPHMLFLDEPTNHLDIETIDALADAINEFEGGMMLVSHDFRLIQQVAQEIWVCEKQTITKWPGDILAYKEHLKSKLVDEEPQLTKRTHNV
Consider B2, for which the binding result in experiment [1] is listed as “binds”.

B3: Protein S100-A11 (protein, UniProt P31949 1-105)
chain: MAKISSPTETERCIESLIAVFQKYAGKDGYNYTLSKTEFLSFMNTELAAFTKNQKDPGVLDRMMKKLDTNSDGQLDFSEFLNLIGGLAMACHDSFLKAVPSQKRT
For B3, the binding entry in experiment [1] was “binds”.

B4: ATP-binding cassette subfamily D member 3 (protein, UniProt P28288 1-659)
chain: MAAFSKYLTARNSSLAGAAFLLLCLLHKRRRALGLHGKKSGKPPLQNNEKEGKKERAVVDKVFFSRLIQILKIMVPRTFCKETGYLVLIAVMLVSRTYCDVWMIQNGTLIESGIIGRSRKDFKRYLLNFIAAMPLISLVNNFLKYGLNELKLCFRVRLTKYLYEEYLQAFTYYKMGNLDNRIANPDQLLTQDVEKFCNSVVDLYSNLSKPFLDIVLYIFKLTSAIGAQGPASMMAYLVVSGLFLTRLRRPIGKMTITEQKYEGEYRYVNSRLITNSEEIAFYNGNKREKQTVHSVFRKLVEHLHNFILFRFSMGFIDSIIAKYLATVVGYLVVSRPFLDLSHPRHLKSTHSELLEDYYQSGRMLLRMSQALGRIVLAGREMTRLAGFTARITELMQVLKDLNHGKYERTMVSQQEKGIEGVQVIPLIPGAGEIIIADNIIKFDHVPLATPNGDVLIRDLNFEVRSGANVLICGPNGCGKSSLFRVLGELWPLFGGRLTKPERGKLFYVPQRPYMTLGTLRDQVIYPDGREDQKRKGISDLVLKEYLDNVQLGHILEREGGWDSVQDWMDVLSGGEKQRMAMARLFYHKPQFAILDECTSAVSVDVEGYIYSHCRKVGITLFTVSHRKSLWKHHEYYLHMDGRGNYEFKQITEDTVEFGS
For the molecule B4, the binding entry in experiment [1] is reported as “binds”.

B5: Protein S100-A13 (protein, UniProt Q99584 1-98)
chain: MAAEPLTELEESIETVVTTFFTFARQEGRKDSLSVNEFKELVTQQLPHLLKDVGSLDEKMKSLDVNQDSELKFNEYWRLIGELAKEIRKKKDLKIRKK
B5: the binding entry in experiment [1] was “binds”.

B6: ATP-binding cassette subfamily F member 3 (protein, UniProt Q9NUQ8 1-709)
chain: MATCAEILRSEFPEIDGQVFDYVTGVLHSGSADFESVDDLVEAVGELLQEVSGDSKDDAGIRAVCQRMYNTLRLAEPQSQGNSQVLLDAPIQLSKITENYDCGTKLPGLLKREQSSTVNAKKLEKAEARLKAKQEKRSEKDTLKTSNPLVLEEASASQAGSRKESRLESSGKNKSYDVRIENFDVSFGDRVLLAGADVNLAWGRRYGLVGRNGLGKTTLLKMLATRSLRVPAHISLLHVEQEVAGDDTPALQSVLESDSVREDLLRRERELTAQIAAGRAEGSEAAELAEIYAKLEEIEADKAPARASVILAGLGFTPKMQQQPTREFSGGWRMRLALARALFARPDLLLLDEPTNMLDVRAILWLENYLQTWPSTILVVSHDRNFLNAIATDIIHLHSQRLDGYRGDFETFIKSKQERLLNQQREYEAQQQYRQHIQVFIDRFRYNANRASQVQSKLKMLEKLPELKPVDKESEVVMKFPDGFEKFSPPILQLDEVDFYYDPKHVIFSRLSVSADLESRICVVGENGAGKSTMLKLLLGDLAPVRGIRHAHRNLKIGYFSQHHVEQLDLNVSAVELLARKFPGRPEEEYRHQLGRYGISGELAMRPLASLSGGQKSRVAFAQMTMPCPNFYILDEPTNHLDMETIEALGRALNNFRGGVILVSHDERFIRLVCRELWVCEGGGVTRVEGGFDQYRALLQEQFRREGFL
On to B6, for which, in experiment [1], the binding result is given as “binds”.

B7: Catenin beta-1, P35222 1-781 (protein)
chain: MATQADLMELDMAMEPDRKAAVSHWQQQSYLDSGIHSGATTTAPSLSGKGNPEEEDVDTSQVLYEWEQGFSQSFTQEQVADIDGQYAMTRAQRVRAAMFPETLDEGMQIPSTQFDAAHPTNVQRLAEPSQMLKHAVVNLINYQDDAELATRAIPELTKLLNDEDQVVVNKAAVMVHQLSKKEASRHAIMRSPQMVSAIVRTMQNTNDVETARCTAGTLHNLSHHREGLLAIFKSGGIPALVKMLGSPVDSVLFYAITTLHNLLLHQEGAKMAVRLAGGLQKMVALLNKTNVKFLAITTDCLQILAYGNQESKLIILASGGPQALVNIMRTYTYEKLLWTTSRVLKVLSVCSSNKPAIVEAGGMQALGLHLTDPSQRLVQNCLWTLRNLSDAATKQEGMEGLLGTLVQLLGSDDINVVTCAAGILSNLTCNNYKNKMMVCQVGGIEALVRTVLRAGDREDITEPAICALRHLTSRHQEAEMAQNAVRLHYGLPVVVKLLHPPSHWPLIKATVGLIRNLALCPANHAPLREQGAIPRLVQLLVRAHQDTQRRTSMGGTQQQFVEGVRMEEIVEGCTGALHILARDVHNRIVIRGLNTIPLFVQLLYSPIENIQRVAAGVLCELAQDKEAAEAIEAEGATAPLTELLHSRNEGVATYAAAVLFRMSEDKPQDYKKRLSVELTSSLFRTEPMAWNETADLGLDIGAQGEPLGYRQDDPSYRSFHSGGYGQDALGMDPMMEHEMGGHHPGADYPVDGLPDLGHAQDLMDGLPPGDSNQLAWFDTDL
Regarding B7, in experiment [2], the binding result was “binds”.

B8: Annexin A1 (protein, UniProt P04083 1-346)
chain: MAMVSEFLKQAWFIENEEQEYVQTVKSSKGGPGSAVSPYPTFNPSSDVAALHKAIMVKGVDEATIIDILTKRNNAQRQQIKAAYLQETGKPLDETLKKALTGHLEEVVLALLKTPAQFDADELRAAMKGLGTDEDTLIEILASRTNKEIRDINRVYREELKRDLAKDITSDTSGDFRNALLSLAKGDRSEDFGVNEDLADSDARALYEAGERRKGTDVNVFNTILTTRSYPQLRRVFQKYTKYSKHDMNKVLDLELKGDIEKCLTAIVKCATSKPAFFAEKLHQAMKGVGTRHKALIRIMVSRSEIDMNDIKAFYQKMYGISLCQAILDETKGDYEKILVALCGGN
As for B8, the binding result in experiment [1] is “binds”.

(Values after publication PMC12065020.)
